The other results are listed elsewhere or left out.
Each target was assayed with Cc1cc(ccc1-c1ccccc1)C(=O)N1CCCN(CC1)C(=O)CCl [compound 10] (assay: probe-labelled cysteine peptide fold change vs DMSO (competition) (log2 fold change); higher = less target engagement (more negative = stronger competition)). Details: 10 µM; THP-1; incubation time: 4 h.
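Further: competitive profiling in live THP-1 cells: cysteine peptides tagged with an iodoacetamide desthiobiotin (IA-DTB) probe, intensity after compound treatment relative to DMSO-treated cells.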

| Target | probe-labelled cysteine peptide fold change |
| --- | --- |
| DCAF13_Q9NV06_215_FNPIETFLLGSCASDR (UniProt Q9NV06) | 0.105 |
| DCAF12L1_Q5VU92_345_QDQQNIRPLCSR (UniProt Q5VU92) | 0.0518 |
| DARS2_Q6PI48_202_MREYLCNLHGFVDIETPTLFK (UniProt Q6PI48) | 0.000167 |
| CUL4A_Q13619_633_TLQSLACGK (UniProt Q13619) | -0.232 |
| DCUN1D1_Q96GG9_131_QEFMDGMTELGCDSIEK (UniProt Q96GG9) | 0.0558 |
| CUTC_Q9NTM9_223_ILEGSGATEFHCSAR (UniProt Q9NTM9) | 0.127 |
| CYTH1_Q15438_323_KPNCFELYIPDNK (UniProt Q15438) | -0.0201 |
| DCP2_Q8IU60_73_AVFSHCPFLLPQGEDVEK (UniProt Q8IU60) | 0.225 |
| CUL3_Q13618_636_ALQSLACGKPTQR (UniProt Q13618) | -0.223 |
| CTSG_P08311_207_AAFKGDSGGPLLCNNVAHGIVSYGK (UniProt P08311) | -0.329 |
| DCTN1_Q14203_677_YEHALSQCSVDVYKK (UniProt Q14203) | -0.0507 |
| DCAF5_Q96JK2_368_QPGCTGDLDGR (UniProt Q96JK2) | 0.0197 |
| DBR1_Q9UK59_8+9_VAVAGCCHGELDK (UniProt Q9UK59) | -0.255 |
| DCAF10_Q5QP82_369_VSGSPCHHSDSNSSEK (UniProt Q5QP82) | 0.042 |
| DCAF7_P61962_109_LECLLNNNK (UniProt P61962) | 0.161 |
| CYBB_P04839_369_IVGDWTEGLFNACGCDK (UniProt P04839) | -0.0879 |
| DCTN4_Q9UJW0_114_AYYLACGFCR (UniProt Q9UJW0) | 0.0164 |
| DCPS_Q96C86_307_AHLLAEVIENLECDPR (UniProt Q96C86) | -0.0605 |

| Target | probe-labelled cysteine peptide fold change |
| --- | --- |
| CTSO_P43234_204_AQNGLCHYFSGSHSGFSIK (UniProt P43234) | 0.165 |
| CTSD_P07339_329_AIGAVPLIQGEYMIPCEK (UniProt P07339) | -0.427 |
| CWF19L1_Q69YN2_87_YFQDADGCELAENITYLGR (UniProt Q69YN2) | -0.174 |
| CXorf21_Q9HAI6_117_ETYLVPSSCK (UniProt Q9HAI6) | -0.19 |
| CUL4A_Q13619_289_VITYLDHSTQKPLIACVEK (UniProt Q13619) | -0.0974 |
| DBR1_Q9UK59_347_VPCNFSVTAACYDPSKPQTQMQLIHR (UniProt Q9UK59) | -0.109 |
| CUX1_P39880-9_375_CAELQVR (UniProt P39880) | 0.242 |
| CYB5R4_Q7L1T6_278_CQLISK (UniProt Q7L1T6) | -0.0627 |
| DCLK2_Q8N568_288_YAQDDFVLDHSECR (UniProt Q8N568) | -0.141 |
| DCAF1_Q9Y4B6_1037_NPVATCPPFSLFTPHQCPEPK (UniProt Q9Y4B6) | 0.00178 |
| DCAF1_Q9Y4B6_69_ADPECMLGHLLR (UniProt Q9Y4B6) | -0.106 |
| DARS_P14868_203_LQSGICHLFR (UniProt P14868) | 0.0878 |
| DCAF6_Q58WW2_766_HTAEHLMLLEADNHVVNCLQPHPFDPILASSGIDYDIK (UniProt Q58WW2) | 0.0173 |
| CXXC1_Q9P0U4_566_VPADEVCGCPLVR (UniProt Q9P0U4) | 0.0407 |
| DCTN1_Q14203_791_DLETSCSDIR (UniProt Q14203) | -0.0273 |
| DAPK1_P53355_484_YGHADVAQLLCSFGSNPNIQDKEEETPLHCAAWHGYYSVAK (UniProt P53355) | -0.0999 |
| DCLRE1C_Q96SD1_359_VVEILKPLCR (UniProt Q96SD1) | -0.125 |
| CYTH4_Q9UIA0_329_KPFCLELYNPSCR (UniProt Q9UIA0) | -0.00483 |

Reference: the supplement of paper PMC12067093, “Discovery and optimisation of a covalent ligand for TRIM25 and its application to targeted protein ubiquitination” (Chemical Science, 2025)
